The text below walks through data of PubChem BioAssay AID1487 (National Center for Advancing Translational Sciences (NCATS), 2009).

Each structure is given as a SMILES string. This is one part of the list. These are further read-outs of the screen, such as a control signal, another cell line or another target. No call is given for them. Most of these compounds were active or inconclusive in the main read-out, so they are no random draw. The note in brackets gives the kind of curve behind each potency; many fits are weak.

The test can be described thus: qHTS Assay for Modulators of Lamin A Splicing. To be noted: HeLa LMNA splicing GFP/RFP minigene ratio, 48 h. In a few lines:
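S3 HeLa cells stably expressing lamin A-EGFP splicing minigene plus DsRed2, 600 cells/well, 48 h compound exposure at 37C. Laser-scanning cytometry; analysed as GFP (500-530 nm)/RFP (575-640 nm) total intensity ratio; 0.5% DMSO vehicle.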
In general terms: qHTS replaces the single test concentration by a dilution series.

[1] abbreviates: measured here: GFP splicing reporter channel.
[2] abbreviates: measured here: RFP viability control channel.

As a reminder, the AC50 is the concentration giving half of the maximal activity seen. For `Cc1ccccc1NC(=S)NC(NC(=O)c1ccccc1C)C(Cl)(Cl)Cl` (configuration not stated), the AC50 is 12.6 µM [falling, single point] under setting [1] and 20 µM [falling, single point] under setting [2]. In the case of `O=[N+]([O-])c1cc(S(=O)(=O)Nc2ccccc2)ccc1N1CCN(c2ccccc2)CC1`, the AC50 under setting [2] was 12.6 µM [rising, partial curve, poor fit]. In the case of `Cc1cc2c(cc1S(N)(=O)=O)S(=O)(=O)CCC2`, the AC50 is 0.0251 µM [falling, full curve] under setting [1] and 0.708 µM [falling, single point] under setting [2]. `Cc1ccccc1OCC(O)Cn1c2ccccc2c2ccccc21` (configuration not stated): the AC50 under setting [1] is 20 µM [falling, single point] and the AC50 under setting [2] is 25.1 µM [falling, single point]. `Cc1ccc(Nc2nc(NCc3ccco3)c3ccccc3n2)cc1`: the AC50 under setting [1] was 35.5 µM [falling, single point] and the AC50 under setting [2] was 35.5 µM [falling, single point]. Regarding `O=C(CSc1nc2ccccc2c(=O)n1Cc1ccco1)N1CCN(c2ccccc2)CC1`, the concentration at half-maximal activity (AC50) is, setting by setting: under setting [1], 11.2 µM [rising, partial curve]; under setting [2], 12.6 µM [rising, partial curve]. As for `CC(C)C(=O)NC(=S)Nc1ccc(S(=O)(=O)Nc2ccccc2)cc1`, the half-maximal activity concentration (AC50) under setting [1] was 14.1 µM [rising, single point] and the AC50 under setting [2] was 35.5 µM [rising, single point]. For `CC1Cc2ccccc2N1CC(=O)Nc1cccc(S(N)(=O)=O)c1` (configuration not stated), the AC50 under setting [2] was 0.0282 µM [falling, full curve, poor fit]. For the molecule `COc1ccc(CN=C2NC(=O)CC(C(=O)Nc3ccc([N+](=O)[O-])cc3C)S2)cc1` (configuration not stated), the AC50 is, setting by setting: under setting [1], 12.6 µM [rising, partial curve, poor fit]; under setting [2], 20 µM [rising, partial curve, poor fit]. As to `O=C(Nc1ccc(Cl)cc1)Nc1ccccc1NS(=O)(=O)c1cccs1`, under setting [2], the AC50 is 35.5 µM [rising, partial curve]. Regarding `COc1cccc(CNC(=O)c2cnc3sc(N4CCCC4)nn3c2=O)c1OC`, the AC50 was 0.00891 µM [falling, full curve, poor fit] under setting [1] and 0.562 µM [falling, full curve, poor fit] under setting [2]. `CCCC(=O)Nc1cccc2c1CCCC2`: the concentration at half-maximal activity (AC50) under setting [2] was 0.126 µM [falling, full curve, poor fit]. Regarding `Cc1ccc(C(=O)N2CCN(c3ccc(Cl)cc3)CC2)cc1`, the AC50 is, setting by setting: under setting [1], 12.6 µM [rising, partial curve]; under setting [2], 12.6 µM [rising, partial curve].

On to `Cc1c(-c2ccccc2)oc2c(C(=O)OCC(=O)Nc3ccc(C(N)=O)cc3)cccc2c1=O`, for which the AC50 runs as follows: under setting [1], 0.0316 µM [rising, full curve]; under setting [2], 0.0282 µM [rising, full curve, poor fit]. Turning to `COc1ccc(CCNC(=O)c2ccc(Cl)c(S(=O)(=O)N(C)c3ccccc3)c2)cc1`, under setting [2], the AC50 is 2.24 µM [rising, full curve].

Consider `COc1ccccc1OCC(=O)OCC(=O)Nc1ncc(Cl)cc1Cl`, for which the AC50 under setting [1] was 35.5 µM [rising, single point] and the AC50 under setting [2] was 20 µM [rising, single point].

For `CCCN(Cc1ccccc1)C(=S)Nc1cccc(C(F)(F)F)c1`, the AC50 under setting [2] is 17.8 µM [rising, partial curve]. As for `COc1ccc(C2NC(=O)N(C)C3=C2C(=O)N(c2ccc(Br)cc2)C3)cc1` (configuration not stated), the AC50 under setting [2] is 0.794 µM [falling, partial curve, poor fit].

Consider `CCCCN1/C(=C/c2ccc3ccccc3[n+]2CC)Sc2ccccc21`, for which, under setting [1], the AC50 is 0.398 µM [rising, single point]. Take `CC(CSc1nnnn1-c1ccccc1)Cn1c(N2CCN(C)CC2)nc2c1c(=O)[nH]c(=O)n2C` (configuration not stated): under setting [2], the AC50 was 35.5 µM [falling, single point]. Regarding `Clc1ccccc1Cn1nnc2c(NCC3CC3)ncnc21`, under setting [2], the AC50 was 11.2 µM [rising, single point].

For `COc1cccc2sc(N(Cc3cccnc3)C(=O)c3ccc4c(c3)OCCO4)nc12`, the AC50 under setting [1] is 4.47 µM [rising, partial curve]. Turning to `COc1ccc2c(C)nc(Nc3nc(C)c(C)c(=O)[nH]3)nc2c1`, the half-maximal activity concentration (AC50) under setting [2] is 7.08 µM [falling, full curve, poor fit].

`CSc1ncccc1C(=O)OCC(=O)c1cccs1`: the AC50 under setting [2] was 22.4 µM [rising, partial curve]. `COc1ccc(CC(=O)c2ccc(OC)c(OC)c2)cc1`: under setting [1], the AC50 was 35.5 µM [rising, single point]. For `CCN1CCN(Cc2c(O)ccc3c(C)c(-c4ccc(OC)cc4)c(=O)oc23)CC1`, the half-maximal activity concentration (AC50) under setting [2] is 35.5 µM [rising, single point]. On the same count and under the same terms, in the case of `Cc1cc(SCC(=O)NCc2ccc(Cl)cc2)nc(=O)[nH]1` it was 2.51 µM [rising, partial curve, poor fit]; in that of `Cc1ccc(-n2nc(-c3ccccc3)cc2Nc2ccccc2N)cc1`, 35.5 µM [rising, single point].

Regarding `Cn1c2ccccc2c2c(C(=O)N3CCN(C(=O)c4ccco4)CC3)cn(C3CCCCC3)c(=O)c21`, the AC50 by setting is: under setting [1], 25.1 µM [rising, single point]; under setting [2], 22.4 µM [rising, single point].

As to `Cc1ccc(S(=O)(=O)N2CCCCC2)cc1NC(=O)CSc1ccc2c(c1)OCCO2`, the AC50 was 11.2 µM [rising, single point] under setting [1] and 12.6 µM [rising, partial curve] under setting [2]. As for `Cc1ccc(C)c(NC(=O)CN2CCSc3ccc(S(=O)(=O)N4CCCC4)cc32)c1`, the AC50 under setting [2] was 0.0178 µM [falling, full curve, poor fit]. In the case of `COC(=O)c1c(-c2ccc(Cl)cc2)noc1N1CCN(c2cc(C)ccc2C)CC1`, the half-maximal activity concentration (AC50) was 4.47 µM [falling, full curve] under setting [1] and 10 µM [falling, partial curve, poor fit] under setting [2]. On to `O=C(O)CSc1nnc(COc2cccc3ccccc23)n1Cc1ccccc1`, for which the AC50 under setting [1] was 0.0794 µM [falling, full curve, poor fit]. In the case of `O=C1CS(=O)(=O)C2(C(=O)N(Cc3ccccc3Cl)c3ccccc32)N1c1ccc(F)cc1` (configuration not stated), the AC50 under setting [2] is 7.08 µM [falling, partial curve, poor fit]. As for `CCCC(=O)N(c1ccc2oc(C)c(C(C)=O)c2c1)S(=O)(=O)c1ccc(CC)cc1`, the AC50 under setting [2] is 31.6 µM [rising, single point]. For the molecule `O=C(NCCN1CCOCC1)c1ccc(N2CCCC2)c([N+](=O)[O-])c1`, under setting [2], the AC50 was 6.31 µM [falling, partial curve, poor fit]. Consider `O=S(=O)(Nc1ccc2c(c1)nc1n2CCN(Cc2ccccc2)C1)c1ccc(F)cc1`, for which, under setting [2], the AC50 is 7.94 µM [rising, partial curve, poor fit]. On to `CCN1C(=O)C(CC(=O)Nc2ccc(OC)cc2)N(CCc2ccc(F)cc2)C1=S` (configuration not stated), for which the AC50 is, setting by setting: under setting [1], 14.1 µM [falling, partial curve]; under setting [2], 11.2 µM [falling, partial curve, poor fit]. For the molecule `CCC(C)(C)NC(=O)C1CCN(S(=O)(=O)c2ccc3c(c2)CCCN3C(C)=O)CC1`, the AC50 under setting [1] is 0.0891 µM [falling, full curve]. Regarding `Clc1cnccn1`, the AC50 under setting [1] is 1.26 µM [falling, partial curve, poor fit]. Take `CCCn1c(SCC(=O)Nc2ccccc2-c2ccccc2)nnc1-c1ccoc1C`: under setting [2], the AC50 was 22.4 µM [rising, single point]. In the case of `COCCCNC(=O)c1cc2cc(S(=O)(=O)N3CCCCC3)ccc2n1C`, under setting [1], the AC50 was 0.141 µM [rising, full curve, poor fit]. With `COC(=O)c1c(NC(=O)c2ccc(S(=O)(=O)N3CCC(C)CC3)cc2)sc2c1CCN(C)C2`, under setting [1], the AC50 is 0.00316 µM [rising, full curve, poor fit]. For the molecule `Cc1cc(N2CC(C)OC(C)C2)nc2ccccc12` (configuration not stated), the AC50 under setting [1] is 0.0251 µM [falling, full curve, poor fit]. `CCCCNC(=O)CSc1nc2ccsc2c(=O)n1CCCC(=O)NCCc1ccc(S(N)(=O)=O)cc1`: the AC50 under setting [1] was 0.0355 µM [rising, partial curve]. On to `Cc1cc(C)c(OCC(=O)Nc2ccccc2N2CCOCC2)c(C)c1`, for which the AC50 under setting [1] was 28.2 µM [rising, single point] and the AC50 under setting [2] is 22.4 µM [rising, single point]. For `CCOC(=O)c1cc(-c2ccc(OC)cc2)nc2c1c(C)nn2CCC(N)=S`, the half-maximal activity concentration (AC50) under setting [2] was 0.891 µM [rising, partial curve, poor fit]. Still for that read-out and setting: in the case of `CCOC(=O)Cc1cc(-c2ccc(O)cc2)nc2ccc3ccccc3c12` it was 6.31 µM [falling, single point].

For the molecule `Cc1cc(C)c(NC(=O)C2CCN(c3nc4ccccc4n4cccc34)CC2)c(C)c1`, the AC50 was 20 µM [falling, partial curve] under setting [1] and 12.6 µM [falling, partial curve] under setting [2].

`COc1ccc(-n2ncc(C(=O)NCc3ccco3)c2C2CCN(C(=O)OC(C)(C)C)CC2)cc1`: under setting [1], the AC50 was 0.00316 µM [rising, full curve, poor fit].

In the case of `CC(C)NC(=O)C1CCC(Cn2c(=O)c3sccc3n(Cc3ccc(F)cc3)c2=O)CC1` (configuration not stated), the half-maximal activity concentration (AC50) under setting [2] was 0.158 µM [falling, full curve, poor fit]. Consider `NC(=O)C1(N2CCCCC2)CCN(c2nc(-c3ccccc3)cs2)CC1`, for which the half-maximal activity concentration (AC50) under setting [2] is 35.5 µM [rising, single point].

In the case of `COc1ccc2[nH]c(C)c(CCN(Cc3cccs3)C(=S)Nc3ccccc3)c2c1`, the AC50 under setting [2] is 11.2 µM [rising, partial curve]. In the case of `c1ccc(OCCOCCN2CCN(C(c3ccccc3)c3ccccc3)CC2)cc1`, the half-maximal activity concentration (AC50) under setting [2] was 15.8 µM [rising, single point]. Take `O=C(NCC(c1cccnc1)N1CCc2ccccc21)c1cccc(Br)c1` (configuration not stated): under setting [2], the AC50 is 10 µM [rising, single point].
